Laboratory results as given in publication PMC10393192.
Positions count from the first letter of the chain named. Numbers in names are those of the source. Results are given in words; binding and its absence hold for the method and conditions named. Some entries that bind do so weakly or less than the wild type. For some assays here: Sequences can lack the tags named with a protein. Each block holds one binder with its values, some of them ahead of it.

By UniProt entry, the sequences of proteins in these tests, tags left out.
UniProt P33323: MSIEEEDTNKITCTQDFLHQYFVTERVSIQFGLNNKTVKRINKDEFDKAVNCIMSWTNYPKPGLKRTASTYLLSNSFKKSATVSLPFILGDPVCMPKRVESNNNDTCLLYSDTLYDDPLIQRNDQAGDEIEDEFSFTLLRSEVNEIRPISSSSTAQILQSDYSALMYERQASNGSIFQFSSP

Tests used:
[1] = target: T1, Mei4_(1–90) (S. cerevisiae) (UniProt P29467); assay: co-purification after coexpression (cobalt resin + SEC); coexpressed in E. coli BL21(DE3) from a pETDuet-based vector with a 6xHis-SUMO tag; cobalt resin in 500 mM NaCl, tag cleaved with Ulp1, Superdex 200 Increase in 25 mM HEPES-NaOH pH 7.4, 100 mM NaCl; fractions checked by SDS-PAGE
T1 sequence: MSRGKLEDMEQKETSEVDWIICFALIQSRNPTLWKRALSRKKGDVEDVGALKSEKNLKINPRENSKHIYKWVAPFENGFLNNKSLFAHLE

[2] = target: T2, Mei4_(13–43) (S. cerevisiae) (UniProt P29467); assay: NMR spectroscopy (HSQC, backbone assignment) of the complex; coexpressed and co-purified complex, 470 µM, uniformly 15N-13C labelled; 25 mM NaHPO4 pH 6.1, 100 mM NaCl, 0.5 mM EDTA, 1 mM TCEP, 0.05% NaN3, 5% D2O; both purified
T2 sequence: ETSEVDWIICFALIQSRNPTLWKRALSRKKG

[3] = target: T3, Mei4N (residues 1–43 of Mei4) (S. cerevisiae) (UniProt P29467); assay: NMR spectroscopy (HSQC, backbone assignment) of the complex; coexpressed and co-purified complex, uniformly 15N-13C labelled; 25 mM HEPES-NaOH pH 7.4, 100 mM NaCl, 0.5 mM EDTA, 1 mM TCEP, 0.05% NaN3, 25°C; both purified
T3 sequence: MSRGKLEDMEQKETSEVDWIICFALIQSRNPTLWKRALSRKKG

[4] = target: T2, Mei4_(13–43) (S. cerevisiae); assay: co-purification after coexpression (cobalt resin + SEC); coexpressed in E. coli BL21(DE3) from a pETDuet-based vector with a 6xHis-SUMO tag; cobalt resin in 500 mM NaCl, tag cleaved with Ulp1, Superdex 200 Increase in 25 mM HEPES-NaOH pH 7.4, 100 mM NaCl; fractions checked by SDS-PAGE
[5] = target: T3, Mei4N (residues 1–43 of Mei4) (S. cerevisiae); assay: as above
[6] = target: T4, mMEI4N (mouse MEI4 residues 1–42) (mouse) (UniProt Q8BRM6); assay: as above
T4 sequence: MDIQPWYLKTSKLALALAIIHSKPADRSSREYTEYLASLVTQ

[7] = target: T5, LexA DNA binding domain fused to Mei4 (S. cerevisiae) (UniProt P29467); assay: two-hybrid; Gal4AD-Rec114 with LexA fusions of the partners in diploid yeast; quantitative β-galactosidase assay with ONPG
T5 sequence: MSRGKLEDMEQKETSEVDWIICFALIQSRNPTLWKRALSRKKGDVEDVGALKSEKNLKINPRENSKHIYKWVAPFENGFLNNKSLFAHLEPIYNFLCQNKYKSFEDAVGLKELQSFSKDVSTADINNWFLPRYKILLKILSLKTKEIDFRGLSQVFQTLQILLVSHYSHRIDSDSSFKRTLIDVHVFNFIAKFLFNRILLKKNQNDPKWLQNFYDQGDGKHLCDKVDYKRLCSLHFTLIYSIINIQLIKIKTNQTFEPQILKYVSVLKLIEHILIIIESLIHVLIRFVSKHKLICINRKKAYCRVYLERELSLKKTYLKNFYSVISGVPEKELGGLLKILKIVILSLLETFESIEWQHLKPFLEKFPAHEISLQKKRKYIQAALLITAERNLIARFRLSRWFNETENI

[8] = target: LexA–Rec104 (S. cerevisiae) (UniProt P33323); assay: as above
[9] = target: T6, LexA–Rec102 (S. cerevisiae) (UniProt Q02721); assay: as above
T6 sequence: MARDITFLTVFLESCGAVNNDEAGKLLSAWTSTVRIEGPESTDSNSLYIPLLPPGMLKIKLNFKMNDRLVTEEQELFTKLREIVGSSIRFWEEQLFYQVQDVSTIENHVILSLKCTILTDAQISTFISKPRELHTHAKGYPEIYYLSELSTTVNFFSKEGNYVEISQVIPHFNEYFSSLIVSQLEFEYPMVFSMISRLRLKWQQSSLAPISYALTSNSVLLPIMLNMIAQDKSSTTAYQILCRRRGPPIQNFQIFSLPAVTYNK

[10] = target: T2, Mei4_(13–43) (S. cerevisiae); assay: NMR spectroscopy (HSQC, backbone assignment) of the complex; coexpressed and co-purified complex, uniformly 15N-13C labelled; 25 mM HEPES-NaOH pH 7.4, 100 mM NaCl, 0.5 mM EDTA, 1 mM TCEP, 0.05% NaN3, 25°C; both purified
[11] = target: T7, Mei4N with a C-terminal ybbR tag (S. cerevisiae) (UniProt P29467); assay: as above
T7 sequence: T3 sequence

[12] = target: Rec114C (residues 375–428 of yeast Rec114) (S. cerevisiae) (UniProt P32841); assay: as above

Binder: NVNRNASRKISKRLIKEKLKDEEFMKWVNKVETVLNKMFEK (domain or fragment, UniProt P32841 388-428) [Rec114_(388–428)]
binding [2]: binds
binding [3]: binds
binding [4]: binds
binding [5]: binds

Binder: NVNRNASRKISKRLIKEKLKDEEFMKWVNAVETVLNAMFEK (domain or fragment, UniProt P32841 388-428) [Rec114_(388–428) K417A/K424A]
binding [5]: binds

Binder: NVNRNASRKISAALIKEKLKDEEFMKWVNKVETVLNKMFEK (domain or fragment, UniProt P32841 388-428) [Rec114_(388–428) K399A/R400A]
binding [5]: binds

B2: mREC114C (mouse REC114 residues 203–259) (domain or fragment, UniProt Q9CWH4 203-259)
chain: RAQSILAPEKLTLAYEGSSWGTEELGPFLRLCLMDQNFPAFVEEVEKELKKITGLRN
binding [6]: binds

B3: Gal4-activating domain (AD) fused to Rec114 (protein, UniProt P32841 1-428)
chain: MYEYCSVVIKKYSKYTIPSFAPNGFQSMLEPPQIDKWQHLSANCTLQFRVLLMDSRQILINVVLNNSTLLENIRLPLGDNQDLIQFSCKSPIISCKYISEEFGPRMLRRFQMNLPNDVEFNRTVVSLKNLNFVLRTARTSIAQSTITSQVQGNNNGTKVCFTEGPKVSSYTNPNTQFQTQNMIMDFSQRYQEESERESNNRSNITLPHDSIQIAQQIWPNTDLNVVQSSQDLNTPMATQTVLGRPESLIVQPLEVSQSPPNTTNCLPNAENKKKKVDTTSDFTSRKEIALCKTGLLETIHIPKERESQMQSVTGLDATPTIIWSPGKDNTAKKNTSNKKNIDDKLTNPQKSGNTHTPDRNKEVLPNGTLNETRKEASPSEGLTIRVKNVNRNASRKISKRLIKEKLKDEEFMKWVNKVETVLNKMFEK
binding [7]: binds
binding [8]: binds
binding [9]: binds

B4: Rec114-4KR (Gal4AD fusion) (protein, UniProt P32841 1-428)
chain: B3 chain with R395A, K396A, K399A, R400A
binding [8]: binds
binding [9]: binds

B5: Rec114 I402A (Gal4AD fusion) (protein, UniProt P32841 1-428)
chain: B3 chain with I402A
binding [7]: binds

Next, values leading:

binding [1]: binds
B1: Rec114_(325–428) (domain or fragment, UniProt P32841 325-428)
chain: PGKDNTAKKNTSNKKNIDDKLTNPQKSGNTHTPDRNKEVLPNGTLNETRKEASPSEGLTIRVKNVNRNASRKISKRLIKEKLKDEEFMKWVNKVETVLNKMFEK

binding [5]: binds
Binder: NVNRNASRKISKRLIAEKLADEEFMKWVNKVETVLNKMFEK (domain or fragment, UniProt P32841 388-428) [Rec114_(388–428) K403A/K407A]

binding [5]: binds
Binder: NVNRNASAAISKRLIKEKLKDEEFMKWVNKVETVLNKMFEK (domain or fragment, UniProt P32841 388-428) [Rec114_(388–428) R395A/K396A]

binding [7]: binds
B6: Rec114 K405E (Gal4AD fusion) (protein, UniProt P32841 1-428)
chain: B3 chain with K405E

binding [7]: binds
B7: Rec114 N416A/E419A/N423A (Gal4AD fusion) (protein, UniProt P32841 1-428)
chain: B3 chain with N416A, E419A, N423A

binding [10]: binds
binding [3]: binds
binding [11]: binds
binding [12]: binds
binding [5]: binds
B8: Rec114C (residues 375–428 of yeast Rec114) (domain or fragment, UniProt P32841 375-428)
chain: EASPSEGLTIRVKNVNRNASRKISKRLIKEKLKDEEFMKWVNKVETVLNKMFEK
